Reference: publication PMC11515493
No constants are given. Whether binding was seen depends on the method and setting. Binding seen in cells or lysates may run through a third protein. Some binding calls cover weakened binding; strength is not graded here.

The chains behind the UniProt entries cited, without tags or fusion partners.
UniProt Q8K4Q0: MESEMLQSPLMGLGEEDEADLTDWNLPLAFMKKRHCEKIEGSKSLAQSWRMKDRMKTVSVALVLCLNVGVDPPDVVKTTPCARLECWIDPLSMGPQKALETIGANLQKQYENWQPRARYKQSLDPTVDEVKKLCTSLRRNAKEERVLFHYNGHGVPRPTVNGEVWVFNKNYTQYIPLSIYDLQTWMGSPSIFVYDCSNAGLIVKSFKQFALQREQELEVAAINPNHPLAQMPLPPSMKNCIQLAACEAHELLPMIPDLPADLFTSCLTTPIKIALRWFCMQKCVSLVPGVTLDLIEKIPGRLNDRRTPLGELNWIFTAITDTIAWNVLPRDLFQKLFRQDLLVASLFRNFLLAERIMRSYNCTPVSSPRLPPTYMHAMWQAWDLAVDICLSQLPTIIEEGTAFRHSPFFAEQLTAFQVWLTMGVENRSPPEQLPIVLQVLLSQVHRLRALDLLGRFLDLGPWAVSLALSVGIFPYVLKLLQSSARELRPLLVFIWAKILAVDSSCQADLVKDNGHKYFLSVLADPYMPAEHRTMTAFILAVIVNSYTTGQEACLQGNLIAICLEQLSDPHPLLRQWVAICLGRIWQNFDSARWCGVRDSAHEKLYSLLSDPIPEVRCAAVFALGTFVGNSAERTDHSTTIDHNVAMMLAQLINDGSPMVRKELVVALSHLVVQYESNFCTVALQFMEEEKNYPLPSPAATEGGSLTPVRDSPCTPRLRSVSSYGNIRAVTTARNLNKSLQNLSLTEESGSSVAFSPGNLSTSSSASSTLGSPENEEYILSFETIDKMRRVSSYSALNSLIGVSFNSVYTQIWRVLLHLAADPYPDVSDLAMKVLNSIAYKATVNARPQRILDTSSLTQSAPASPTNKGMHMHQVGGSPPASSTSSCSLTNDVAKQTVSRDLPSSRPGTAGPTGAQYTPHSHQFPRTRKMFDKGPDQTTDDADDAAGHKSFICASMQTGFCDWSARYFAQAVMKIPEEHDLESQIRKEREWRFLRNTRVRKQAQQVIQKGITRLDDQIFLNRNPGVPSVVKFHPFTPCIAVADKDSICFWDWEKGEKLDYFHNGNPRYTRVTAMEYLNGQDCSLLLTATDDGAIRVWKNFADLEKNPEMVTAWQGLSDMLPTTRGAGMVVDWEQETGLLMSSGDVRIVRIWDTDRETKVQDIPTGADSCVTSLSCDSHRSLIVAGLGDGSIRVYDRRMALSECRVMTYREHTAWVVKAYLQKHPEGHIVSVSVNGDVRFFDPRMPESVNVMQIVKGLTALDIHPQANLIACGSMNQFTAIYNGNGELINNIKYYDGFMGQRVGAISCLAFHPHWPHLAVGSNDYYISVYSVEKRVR
UniProt P70398: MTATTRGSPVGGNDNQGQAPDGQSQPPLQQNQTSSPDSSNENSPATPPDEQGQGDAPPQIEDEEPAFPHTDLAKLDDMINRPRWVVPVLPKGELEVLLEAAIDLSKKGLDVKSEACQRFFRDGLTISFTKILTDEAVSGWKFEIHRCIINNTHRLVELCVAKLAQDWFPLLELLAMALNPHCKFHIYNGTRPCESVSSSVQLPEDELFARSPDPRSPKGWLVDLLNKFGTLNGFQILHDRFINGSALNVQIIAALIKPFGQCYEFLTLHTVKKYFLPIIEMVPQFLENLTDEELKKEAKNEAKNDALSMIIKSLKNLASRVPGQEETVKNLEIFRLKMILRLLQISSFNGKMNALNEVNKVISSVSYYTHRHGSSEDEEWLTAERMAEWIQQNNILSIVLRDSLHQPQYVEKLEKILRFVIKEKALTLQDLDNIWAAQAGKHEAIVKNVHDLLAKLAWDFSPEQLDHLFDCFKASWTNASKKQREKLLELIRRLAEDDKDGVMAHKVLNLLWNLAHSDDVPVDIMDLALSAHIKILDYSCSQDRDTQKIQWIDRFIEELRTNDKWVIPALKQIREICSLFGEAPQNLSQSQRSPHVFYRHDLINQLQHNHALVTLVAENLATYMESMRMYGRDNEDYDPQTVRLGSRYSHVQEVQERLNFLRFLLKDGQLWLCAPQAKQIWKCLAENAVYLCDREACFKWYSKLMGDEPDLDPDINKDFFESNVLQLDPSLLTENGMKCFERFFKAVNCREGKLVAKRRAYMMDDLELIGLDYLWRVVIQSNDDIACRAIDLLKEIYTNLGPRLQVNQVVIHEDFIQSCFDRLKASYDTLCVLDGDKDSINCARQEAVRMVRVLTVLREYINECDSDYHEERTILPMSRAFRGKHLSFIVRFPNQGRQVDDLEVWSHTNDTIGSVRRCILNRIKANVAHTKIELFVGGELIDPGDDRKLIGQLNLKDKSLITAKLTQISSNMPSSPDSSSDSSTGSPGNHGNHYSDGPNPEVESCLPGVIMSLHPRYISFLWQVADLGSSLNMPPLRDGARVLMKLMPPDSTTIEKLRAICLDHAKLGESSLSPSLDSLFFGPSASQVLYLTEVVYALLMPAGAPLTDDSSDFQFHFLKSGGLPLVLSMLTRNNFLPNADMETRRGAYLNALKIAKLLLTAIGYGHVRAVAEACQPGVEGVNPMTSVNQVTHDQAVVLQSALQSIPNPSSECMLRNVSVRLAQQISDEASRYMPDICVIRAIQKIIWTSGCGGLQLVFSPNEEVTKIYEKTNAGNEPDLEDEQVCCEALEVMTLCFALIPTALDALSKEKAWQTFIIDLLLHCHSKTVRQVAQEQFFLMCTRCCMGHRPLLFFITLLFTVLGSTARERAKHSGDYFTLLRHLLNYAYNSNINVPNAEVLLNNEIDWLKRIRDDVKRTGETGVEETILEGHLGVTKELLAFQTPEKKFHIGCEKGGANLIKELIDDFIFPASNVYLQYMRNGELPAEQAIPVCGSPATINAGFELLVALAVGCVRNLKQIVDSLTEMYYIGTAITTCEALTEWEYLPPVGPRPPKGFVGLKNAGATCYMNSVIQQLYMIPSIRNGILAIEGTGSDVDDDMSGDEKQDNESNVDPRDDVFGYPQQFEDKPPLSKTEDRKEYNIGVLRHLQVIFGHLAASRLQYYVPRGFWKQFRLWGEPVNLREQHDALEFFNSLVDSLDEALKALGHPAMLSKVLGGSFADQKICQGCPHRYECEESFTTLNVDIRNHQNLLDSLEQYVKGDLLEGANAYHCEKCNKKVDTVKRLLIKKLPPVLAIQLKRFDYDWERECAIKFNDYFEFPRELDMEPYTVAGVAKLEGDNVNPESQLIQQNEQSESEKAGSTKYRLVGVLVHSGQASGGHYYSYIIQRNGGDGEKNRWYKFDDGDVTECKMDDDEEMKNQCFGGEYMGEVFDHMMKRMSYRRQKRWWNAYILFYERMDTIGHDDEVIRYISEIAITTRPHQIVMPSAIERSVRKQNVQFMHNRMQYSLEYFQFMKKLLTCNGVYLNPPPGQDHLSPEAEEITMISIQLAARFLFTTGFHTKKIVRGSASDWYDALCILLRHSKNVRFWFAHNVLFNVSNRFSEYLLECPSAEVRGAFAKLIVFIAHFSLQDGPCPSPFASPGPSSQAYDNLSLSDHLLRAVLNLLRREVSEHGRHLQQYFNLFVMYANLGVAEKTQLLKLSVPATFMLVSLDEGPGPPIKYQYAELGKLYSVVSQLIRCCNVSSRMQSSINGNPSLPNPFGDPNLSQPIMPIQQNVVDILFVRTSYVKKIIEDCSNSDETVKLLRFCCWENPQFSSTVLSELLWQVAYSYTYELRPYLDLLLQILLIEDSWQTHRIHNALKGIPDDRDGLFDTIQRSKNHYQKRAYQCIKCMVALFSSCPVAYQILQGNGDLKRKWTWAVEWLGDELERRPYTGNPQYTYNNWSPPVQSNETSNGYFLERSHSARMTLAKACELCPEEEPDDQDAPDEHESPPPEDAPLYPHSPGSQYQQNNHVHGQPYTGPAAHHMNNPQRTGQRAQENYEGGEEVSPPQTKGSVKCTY

Molecular target: Raptor, endogenous in mouse hippocampus (mouse (endogenous in hippocampus)) (UniProt Q8K4Q0)
Assay: co-IP; hippocampal lysate of P301S mice; 2 mg protein with 4 ug primary antibody overnight at 4 °C, Protein A + G agarose 4 h, three washes, Western blot

binding: binds
Substance: USP9X (ubiquitin specific peptidase 9, X-linked), endogenous in mouse hippocampus (from UniProt P70398 1-2559) (enzyme)
